Results from PMC9563052.
These are yes or no findings as the source states them, for the method shown. Some binding calls cover weakened binding; strength is not graded here.

The chains behind the UniProt entries cited, without tags or fusion partners. Where a name states a change or a piece, a line headed by the entry shows the natural chain unless it says otherwise.
UniProt P08514: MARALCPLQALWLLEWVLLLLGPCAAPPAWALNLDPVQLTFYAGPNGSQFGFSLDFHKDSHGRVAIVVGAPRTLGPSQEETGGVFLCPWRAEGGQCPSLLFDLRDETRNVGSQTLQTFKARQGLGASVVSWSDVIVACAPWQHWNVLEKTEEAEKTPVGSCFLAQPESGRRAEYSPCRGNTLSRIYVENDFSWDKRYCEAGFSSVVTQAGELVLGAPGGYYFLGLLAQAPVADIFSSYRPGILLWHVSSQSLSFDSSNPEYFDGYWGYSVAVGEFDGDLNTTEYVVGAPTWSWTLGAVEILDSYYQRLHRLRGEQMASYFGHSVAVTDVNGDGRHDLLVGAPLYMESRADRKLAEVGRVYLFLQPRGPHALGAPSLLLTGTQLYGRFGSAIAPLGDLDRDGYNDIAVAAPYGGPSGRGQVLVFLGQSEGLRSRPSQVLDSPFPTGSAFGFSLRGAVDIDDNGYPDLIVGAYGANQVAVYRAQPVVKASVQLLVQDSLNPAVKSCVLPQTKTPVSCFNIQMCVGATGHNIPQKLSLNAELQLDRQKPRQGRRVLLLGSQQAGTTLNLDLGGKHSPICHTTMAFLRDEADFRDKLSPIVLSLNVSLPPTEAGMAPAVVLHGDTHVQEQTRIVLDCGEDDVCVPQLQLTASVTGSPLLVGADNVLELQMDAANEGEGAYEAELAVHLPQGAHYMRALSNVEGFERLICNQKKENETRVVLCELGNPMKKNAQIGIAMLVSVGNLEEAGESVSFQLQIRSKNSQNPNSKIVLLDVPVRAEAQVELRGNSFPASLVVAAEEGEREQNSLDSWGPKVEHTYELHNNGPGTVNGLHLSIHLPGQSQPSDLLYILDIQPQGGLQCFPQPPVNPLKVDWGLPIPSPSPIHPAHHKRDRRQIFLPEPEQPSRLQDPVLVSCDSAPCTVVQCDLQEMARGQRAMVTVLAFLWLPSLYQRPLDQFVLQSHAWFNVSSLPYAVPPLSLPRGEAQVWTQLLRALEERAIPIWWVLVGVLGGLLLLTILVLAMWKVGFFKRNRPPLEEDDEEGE
UniProt P05106: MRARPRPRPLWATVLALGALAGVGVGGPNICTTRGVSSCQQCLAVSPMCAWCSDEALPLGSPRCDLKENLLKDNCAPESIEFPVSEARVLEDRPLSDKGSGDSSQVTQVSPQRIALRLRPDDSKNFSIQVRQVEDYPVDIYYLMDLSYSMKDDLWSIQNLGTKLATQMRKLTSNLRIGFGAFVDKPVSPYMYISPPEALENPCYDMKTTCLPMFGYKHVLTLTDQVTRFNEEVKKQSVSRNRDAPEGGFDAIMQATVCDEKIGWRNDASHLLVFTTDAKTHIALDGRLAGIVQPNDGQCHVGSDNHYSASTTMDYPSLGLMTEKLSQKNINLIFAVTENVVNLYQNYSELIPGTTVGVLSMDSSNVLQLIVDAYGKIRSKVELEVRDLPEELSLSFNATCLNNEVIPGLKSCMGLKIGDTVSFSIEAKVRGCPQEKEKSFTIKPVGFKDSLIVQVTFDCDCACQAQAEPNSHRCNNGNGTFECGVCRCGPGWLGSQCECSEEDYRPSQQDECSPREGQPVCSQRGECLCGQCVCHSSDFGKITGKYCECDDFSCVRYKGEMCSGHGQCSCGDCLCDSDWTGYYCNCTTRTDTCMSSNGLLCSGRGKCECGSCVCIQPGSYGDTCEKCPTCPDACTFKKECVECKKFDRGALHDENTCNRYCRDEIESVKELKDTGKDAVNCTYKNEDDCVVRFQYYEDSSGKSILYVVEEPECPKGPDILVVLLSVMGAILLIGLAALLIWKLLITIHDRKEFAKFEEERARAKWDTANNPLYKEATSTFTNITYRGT

Target: cell-surface αIIbβ3 on CHO cells (recombinant human αIIbβ3) (human) (UniProt P08514+P05106)
Assay: flow cytometry on cells; αIIbβ3-CHO cells in HEPES-Tyrodes buffer/0.02% BSA, 1 mM Ca2+, incubated with chemokines (CCL5, CXCL12 or CX3CL1) 30 min on ice, then FITC-labeled γC390-411 (50 µg/mL) 30 min at room temperature; only the binder purified

**Q.** For NRLTIGEGQQHHLGGAKQAGDV (FITC-labeled) [FITC-labeled γC390-411], which binding is on record?
**A.** Its binding is “binds”.
